No constants are given. Whether binding was seen depends on the method and setting. Where a sequence is shown, tags or fusion partners need not be part of it.
Legend:
[1] = target: GST-ASNS GATase-2 domain; assay: pull-down; GST affinity isolation: GST-tagged NEK8 or ASNS proteins on glutathione-Sepharose 4B beads incubated with His-tagged ASNS or NEK8 at 4 °C for five hours; wash with GST binding buffer (2 mM EDTA, 50 mM NaF, 100 mM NaCl, 1% NP-40); immunoblotting; both purified
[2] = target: GST-NEK8 RCC1 domain; assay: as above

binding [1] | binding [2] | Binder
no binding | – | His-NEK8 (enzyme, UniProt Q86SG6 1-692) MEKYERIRVVGRGAFGIVHLCLRKADQKLVIIKQIPVEQMTKEERQAAQNECQVLKLLNHPNVIEYYENFLEDKALMIAMEYAPGGTLAEFIQKRCNSLLEEETILHFFVQILLALHHVHTHLILHRDLKTQNILLDKHRMVVKIGDFGISKILSSKSKAYTVVGTPCYISPELCEGKPYNQKSDIWALGCVLYELASLKRAFEAANLPALVLKIMSGTFAPISDRYSPELRQLVLSLLSLEPAQRPPLSHIMAQPLCIRALLNLHTDVGSVRMRRAEKSVAPSNTGSRTTSVRCRGIPRGPVRPAIPPPLSSVYAWGGGLGTPLRLPMLNTEVVQVAAGRTQKAGVTRSGRLILWEAPPLGAGGGSLLPGAVEQPQPQFISRFLEGQSGVTIKHVACGDFFTACLTDRGIIMTFGSGSNGCLGHGSLTDISQPTIVEALLGYEMVQVACGASHVLALSTERELFAWGRGDSGRLGLGTRESHSCPQQVPMPPGQEAQRVVCGIDSSMILTVPGQALACGSNRFNKLGLDHLSLGEEPVPHQQVEEALSFTLLGSAPLDQEPLLSIDLGTAHSAAVTASGDCYTFGSNQHGQLGTNTRRGSRAPCKVQGLEGIKMAMVACGDAFTVAIGAESEVYSWGKGARGRLGRRDEDAGLPRPVQLDETHPYTVTSVSCCHGNTLLAVRSVTDEPVPP
– | no binding | His-tagged ASNS (enzyme, UniProt P08243 1-561) MCGIWALFGSDDCLSVQCLSAMKIAHRGPDAFRFENVNGYTNCCFGFHRLAVVDPLFGMQPIRVKKYPYLWLCYNGEIYNHKKMQQHFEFEYQTKVDGEIILHLYDKGGIEQTICMLDGVFAFVLLDTANKKVFLGRDTYGVRPLFKAMTEDGFLAVCSEAKGLVTLKHSATPFLKVEPFLPGHYEVLDLKPNGKVASVEMVKYHHCRDVPLHALYDNVEKLFPGFEIETVKNNLRILFNNAVKKRLMTDRRIGCLLSGGLDSSLVAATLLKQLKEAQVQYPLQTFAIGMEDSPDLLAARKVADHIGSEHYEVLFNSEEGIQALDEVIFSLETYDITTVRASVGMYLISKYIRKNTDSVVIFSGEGSDELTQGYIYFHKAPSPEKAEEESERLLRELYLFDVLRADRTTAAHGLELRVPFLDHRFSSYYLSLPPEMRIPKNGIEKHLLRETFEDSNLIPKEILWRPKEAFSDGITSVKNSWFKILQEYVEHQVDDAMMANAAQKFPFNTPKTKEGYYYRQVFERHYPGRADWLSHYWMPKWINATDPSARTLTHYKSAVKA
